The results in this text go back to patent US6500821B1, “4-amino-1-aryl-1,5-dihydropyrrol-2-ones and process for making” (Arzneimittelwerk Dresden GmbH, priority 1999, dated 2002).

The subject of this data set is Vogel Conflict Test. The experiment in a line: Vogel Conflict Test. The class given is in vivo, rat. An excerpt: In this model, continuous access to drinking water is withheld from rats for a certain time. After this period, free access is given to drinking water, but is coupled with a mild electrical stimulation. The conflict for the animals is between accepting the electrical stimulation or going without a drink.
The reactions to a conflict situation of this type are similar to the secondary phenomena of anxiety in man. The resulting avoidance reactions can be suppressed by anxiolytic substances. As a measure of the anxiolytic action, the number of tolerated current pulses of the animals treated with the test substance is assessed in comparison to the vehicle-treated control group.

The molecule `CN1C(=O)CN=C(c2ccccc2)c2cc(Cl)ccc21` [Diazepam, diazepam] came in with a therapeutic index of 13.
